This test concerns the target AtHESPERIN (Arabidopsis thaliana) (UniProt A8MS41). The experiment in a line: native gel or EMSA; 7% PAGE under nondenaturing conditions for acidic proteins; 16 ug AtHESPERIN incubated with urea, more than 4 M (up to 8 M); both purified. On the technique in general: Mobility shift assays separate free from complexed probe on a gel.

Drawing on paper PMC9063446, “Biochemical and in silico identification of the active site and the catalytic mechanism of the circadian deadenylase HESPERIN” (FEBS Open Bio, 2022), this text covers binding for one molecule.

No constants are given. Whether binding was seen depends on the method and setting.

B1: AtHESPERIN (enzyme, Arabidopsis thaliana, UniProt A8MS41 1-417, looked up)
chain: MFSSTTLHHLPRPNLLLPRKVISRRMSTNPAIEPKVRKFESVEGVDIGSRNKSDGFFAIPLYLSKLVALYNCISLSRIGTSNENFVFSGIRFRLVSYNILAQVYVKSALLPHSPPACLKWKARSHAILSVLKNLQADFFCLQEVDEYDSFYRNNMDSLGYSGIYIQRTGQRKRDGCAIFYKPSCAELVTKERIEYNDLVDSIKADSVSCSEQKIETSNEGKDSRKDSRDLNDPLVRLKRDCVGIMAAFRINKPFQHIVIVANTHLYWDPELADVKLAQAKYLLSRLAQFKTLISDEFECTPSLLLAGDFNSIPGDMVYSYLVSGNAKPTETIEEEEAPVPLSSVYEVTRGEPKFTNCTPGFTNTLDYIFISPSDFIKPVSILQLPEPDSPDVVGFLPNHHHPSDHLPIGAEFEIRRE
notes: AtHESPERIN (Hesperin), circadian EEP deadenylase of Arabidopsis thaliana, UniProtKB A8MS41; cDNA cloned in pATHRA behind 6x His tag and HRV 3C site; The His tag was removed with HRV 3C protease (site LEVLFQ/GP), so residues of the site may be left at the N-terminus; It calls the oligomer mainly trimeric; also called native AtHESPERIN; wild-type AtHESPERIN; source: E. coli BL21-GOLD (DE3), …
Regarding B1, the binding entry is “no binding (condition: with more than 4 M urea)”.
